Test results published in US12729225B2, “Non-canonical SWI/SNF complex and uses thereof” (Dana-Farber Cancer Institute, Inc., priority 2018, dated 2026).

Test system: mSWI/SNF complexes
Assay: mSWI/SNF complex purification with HA-tagged baits and mass spectrometry (peptide counts)
Parameters: species or system human
[1] = 293_HA-BRD7 bait purification, mass spectrometry, total peptides per co-purified protein
[2] = 293_HA-BRD7 bait purification, mass spectrometry, unique peptides per co-purified protein

B1: SUCLA2 (protein, UniProt Q9P2R7 53-463, looked up)
Succinate--CoA ligase …: LSLHEYMSMELLQEAGVSVPKGYVAKSPDEAYAIAKKLGSKDVVIKAQVLAGGRGKGTFESGLKGGVKIVFSPEEAKAVSSQMIGKKLFTKQTGEKGRICNQVLVCERKYPRREYYFAITMERSFQGPVLIGSSHGGVNIEDVAAESPEAIIKEPIDIEEGIKKEQALQLAQKMGFPPNIVESAAENMVKLYSLFLKYDATMIEINPMVEDSDGAVLCMDAKINFDSNSAYRQKKIFDLQDWTQEDERDKDAAKANLNYIGLDGNIGCLVNGAGLAMATMDIIKLHGGTPANFLDVGGGATVHQVTEAFKLITSDKKVLAILVNIFGGIMRCDVIAQGIVMAVKDLEIKIPVVVRLQGTRVDDAKALIADSGLKILACDDLDEAARMVVKLSEIVTLAKQAHVDVKFQLPI
**Q.** Which results are given for B1?
**A.** Total [1]: 4; Unique [2]: 4

B2: SURF6 (protein, UniProt O75683 1-361, looked up)
Surfeit locus protein 6: MASLLAKDAYLQSLAKKICSHSAPEQQARTRAGKTQGSETAGPPKKKRKKTQKKFRKREEKAAEHKAKSLGEKSPAASGARRPEAAKEEAAWASSSAGNPADGLATEPESVFALDVLRQRLHEKIQEARGQGSAKELSPAALEKRRRRKQERDRKKRKRKELRAKEKARKAEEATEAQEVVEATPEGACTEPREPPGLIFNKVEVSEDEPASKAQRRKEKRQRVKGNLTPLTGRNYRQLLERLQARQSRLDELRGQDEGKAQELEAKMKWTNLLYKAEGVKIRDDERLLQEALKRKEKRRAQRQRRWEKRTAGVVEKMQQRQDRRRQNLRRKKAARAERRLLRARKKGRILPQDLERAGLV
**Q.** B2 was tested. Which Total [1] did it give?
**A.** 4

**Q.** And the Unique [2]?
**A.** 4

B3: PGAM5 (protein, UniProt Q96HS1 1-289, looked up)
Serine/threonine-protein …: MAFRQALQLAACGLAGGSAAVLFSAVAVGKPRAGGDAEPRPAEPPAWAGGARPGPGVWDPNWDRREPLSLINVRKRNVESGEEELASKLDHYKAKATRHIFLIRHSQYHVDGSLEKDRTLTPLGREQAELTGLRLASLGLKFNKIVHSSMTRAIETTDIISRHLPGVCKVSTDLLREGAPIEPDPPVSHWKPEAVQYYEDGARIEAAFRNYIHRADARQEEDSYEIFICHANVIRYIVCRALQFPPEGWLRLSLNNGSITHLVIRPNGRVALRTLGDTGFMPPDKITRS
**Q.** With B3 as the molecule, how does the Total [1] read?
**A.** 4

**Q.** What about the Unique [2] of the same molecule?
**A.** 4

B4: NUSAP1 (protein, UniProt Q9BXS6 1-441, looked up)
Nucleolar and …: MIIPSLEELDSLKYSDLQNLAKSLGLRANLRATKLLKALKGYIKHEARKGNENQDESQTSASSCDETEIQISNQEEAERQPLGHVTKTRRRCKTVRVDPDSQQNHSEIKISNPTEFQNHEKQESQDLRATAKVPSPPDEHQEAENAVSSGNRDSKVPSEGKKSLYTDESSKPGKNKRTAITTPNFKKLHEAHFKEMESIDQYIERKKKHFEEHNSMNELKQQPINKGGVRTPVPPRGRLSVASTPISQRRSQGRSCGPASQSTLGLKGSLKRSAISAAKTGVRFSAATKDNEHKRSLTKTPARKSAHVTVSGGTPKGEAVLGTHKLKTITGNSAAVITPFKLTTEATQTPVSNKKPVFDLKASLSRPLNYEPHKGKLKPWGQSKENNYLNQHVNRINFYKKTYKQPHLQTKEEQRKKREQERKEKKAKVLGMRRGLILAED
**Q.** Which results are given for B4?
**A.** Total [1]: 4; Unique [2]: 4

B5: HADH (protein, UniProt Q16836 13-314, looked up)
Hydroxyacyl-coenzyme A …: SSSSTASASAKKIIVKHVTVIGGGLMGAGIAQVAAATGHTVVLVDQTEDILAKSKKGIEESLRKVAKKKFAENLKAGDEFVEKTLSTIATSTDAASVVHSTDLVVEAIVENLKVKNELFKRLDKFAAEHTIFASNTSSLQITSIANATTRQDRFAGLHFFNPVPVMKLVEVIKTPMTSQKTFESLVDFSKALGKHPVSCKDTPGFIVNRLLVPYLMEAIRLYERGDASKEDIDTAMKLGAGYPMGPFELLDYVGLDTTKFIVDGWHEMDAENPLHQPSPSLNKLVAENKFGKKTGEGFYKYK
**Q.** B5 was tested. Which Total [1] did it give?
**A.** 5

**Q.** And the Unique [2]?
**A.** 3

B6: KRT10 (protein, UniProt P13645 1-584, looked up)
Keratin, type I cytoskeletal …: MSVRYSSSKHYSSSRSGGGGGGGGCGGGGGVSSLRISSSKGSLGGGFSSGGFSGGSFSRGSSGGGCFGGSSGGYGGLGGFGGGSFRGSYGSSSFGGSYGGIFGGGSFGGGSFGGGSFGGGGFGGGGFGGGFGGGFGGDGGLLSGNEKVTMQNLNDRLASYLDKVRALEESNYELEGKIKEWYEKHGNSHQGEPRDYSKYYKTIDDLKNQILNLTTDNANILLQIDNARLAADDFRLKYENEVALRQSVEADINGLRRVLDELTLTKADLEMQIESLTEELAYLKKNHEEEMKDLRNVSTGDVNVEMNAAPGVDLTQLLNNMRSQYEQLAEQNRKDAEAWFNEKSKELTTEIDNNIEQISSYKSEITELRRNVQALEIELQSQLALKQSLEASLAETEGRYCVQLSQIQAQISALEEQLQQIRAETECQNTEYQQLLDIKIRLENEIQTYRSLLEGEGSSGGGGRGGGSFGGGYGGGSSGGGSSGGGHGGGHGGSSGGGYGGGSSGGGSSGGGYGGGSSSGGHGGSSSGGYGGGSSGGGGGGYGGGSSGGGSSSGGGYGGGSSSGGHKSSSSGSVGESSSKGPRY
**Q.** What does the source list for B6?
**A.** Total (293_HA-BRD7: HA-BRD7 bait purification, total peptide count per co-purified protein): 31; Unique (293_HA-BRD7: HA-BRD7 bait purification, unique peptide count per co-purified protein): 25

B7: SRP14 (protein, UniProt P37108 2-136, looked up)
Signal recognition particle …: VLLESEQFLTELTRLFQKCRTSGSVYITLKKYDGRTKPIPKKGTVEGFEPADNKCLLRATDGKKKISTVVSSKEVNKFQMAYSNLLRANMDGLKKRDKKNKTKKTKAAAAAAAAAPAAAATAPTTAATTAATAAQ
**Q.** Which Total [1] does the source give for B7 here?
**A.** 4

**Q.** And the Unique [2]?
**A.** 4

B8: STT3A (protein, UniProt P46977 1-705, looked up)
Dolichyl-diphosphooligosacchar …: MTKFGFLRLSYEKQDTLLKLLILSMAAVLSFSTRLFAVLRFESVIHEFDPYFNYRTTRFLAEEGFYKFHNWFDDRAWYPLGRIIGGTIYPGLMITSAAIYHVLHFFHITIDIRNVCVFLAPLFSSFTTIVTYHLTKELKDAGAGLLAAAMIAVVPGYISRSVAGSYDNEGIAIFCMLLTYYMWIKAVKTGSICWAAKCALAYFYMVSSWGGYVFLINLIPLHVLVLMLTGRFSHRIYVAYCTVYCLGTILSMQISFVGFQPVLSSEHMAAFGVFGLCQIHAFVDYLRSKLNPQQFEVLFRSVISLVGFVLLTVGALLMLTGKISPWTGRFYSLLDPSYAKNNIPIIASVSEHQPTTWSSYYFDLQLLVFMFPVGLYYCFSNLSDARIFIIMYGVTSMYFSAVMVRLMLVLAPVMCILSGIGVSQVLSTYMKNLDISRPDKKSKKQQDSTYPIKNEVASGMILVMAFFLITYTFHSTWVTSEAYSSPSIVLSARGGDGSRIIFDDFREAYYWLRHNTPEDAKVMSWWDYGYQITAMANRTILVDNNTWNNTHISRVGQAMASTEEKAYEIMRELDVSYVLVIFGGLTGYSSDDINKFLWMVRIGGSTDTGKHIKENDYYTPTGEFRVDREGSPVLLNCLMYKMCYYRFGQVYTEAKRPPGFDRVRNAEIGNKDFELDVLEEAYTTEHWLVRIYKVKDLDNRGLSRT
**Q.** B8 was tested. Which Total [1] did it give?
**A.** 4

**Q.** What about the Unique [2] of the same molecule?
**A.** 4

B9: U2AF1 (protein, UniProt Q01081 2-240, looked up)
Splicing factor U2AF 35 kDa …: AEYLASIFGTEKDKVNCSFYFKIGACRHGDRCSRLHNKPTFSQTIALLNIYRNPQNSSQSADGLRCAVSDVEMQEHYDEFFEEVFTEMEEKYGEVEEMNVCDNLGDHLVGNVYVKFRREEDAEKAVIDLNNRWFNGQPIHAELSPVTDFREACCRQYEMGECTRGGFCNFMHLKPISRELRRELYGRRRKKHRSRSRSRERRSRSRDRGRGGGGGGGGGGGGRERDRRRSRDRERSGRF
**Q.** How did the Total [1] turn out when B9 was run?
**A.** 15

**Q.** And the Unique [2]?
**A.** 3
